Assay results taken from patent US10059708B2, “Therapeutic targeting of the interleukin 1 receptor-associated kinase 4 (IRAK4) in leukemias characterized by rearrangements in the mixed lineage leukemia gene (MLL-r)” (Northwestern University, priority 2016, dated 2018).
Some results were stated once for a whole list of compounds, not compound by compound.

Tested on: wild-type MLL protein
Assay: MLL stabilization assay (western blotting) with new compounds
Format: cell-based
Conditions: western blotting (FIG. 16A)
Procedure: FIG. 16. Development of novel compounds (NUCC0200618 and NUCC0200554) that stabilize the wild-type MLL protein and slow leukemic cell growth through IRAK4 inhibition. A) Western blotting for MLL protein levels in cells treated with the indicated compounds designed and synthesized at Northwestern. Protein stabilization is observed to increase by 6 hours of treatment. B) Luciferase-based IRAK4 kinase assays (Promega) with the indicated doses of the new compounds. C) Cell viability counts after 3 days of treatment with the indicated doses of the new compounds.
The newly synthesized compound NUCC0200554 (Compound 16 of Example 2) and compound NUCC0200618 (Compound 21 of Example 2) were further tested in MLL stabilization assay, in an IRAK4 kinase activity as described above, and in a SEM cell proliferation assay as follows. SEM (ACC-546) leukemia cells were maintained in Iscove's Modified Dulbecco's Medium (IMDM) with 10% FBS. Viable SEM cells were seeded at 0.2 million/ml, and treated with different concentrations of inhibitors at the indicated concentrations for three days. Viable cells were monitored by trypan blue exclusion staining and counted using a Vi-CELL XR cell counter. Data are represented as Mean±SD (n=3).

SMILES | treatment time by which MLL protein stabilization is observed to increase
Nc1cccc(-c2cnc(NC(=O)c3cccc(Cl)c3)[nH]2)c1 [NUCC0200554, N-(5-(3-aminophenyl)-1H-imidazol-2-yl)-3-chlorobenzamide] | ≤ 6 h
O=C(Nc1ncc(-c2cccc(O)c2)[nH]1)c1ccccc1 [NUCC0200618, N-(5-(3-hydroxyphenyl)-1H-imidazol-2-yl)benzamide] | ≤ 6 h
